Experimental data taken from the supplement of paper PMC10849652.
This is one part of the list.

By UniProt entry, the sequences of proteins in these tests, tags left out. Where a name states a change or a piece, a line headed by the entry shows the natural chain unless it says otherwise.
UniProt Q8WWY3: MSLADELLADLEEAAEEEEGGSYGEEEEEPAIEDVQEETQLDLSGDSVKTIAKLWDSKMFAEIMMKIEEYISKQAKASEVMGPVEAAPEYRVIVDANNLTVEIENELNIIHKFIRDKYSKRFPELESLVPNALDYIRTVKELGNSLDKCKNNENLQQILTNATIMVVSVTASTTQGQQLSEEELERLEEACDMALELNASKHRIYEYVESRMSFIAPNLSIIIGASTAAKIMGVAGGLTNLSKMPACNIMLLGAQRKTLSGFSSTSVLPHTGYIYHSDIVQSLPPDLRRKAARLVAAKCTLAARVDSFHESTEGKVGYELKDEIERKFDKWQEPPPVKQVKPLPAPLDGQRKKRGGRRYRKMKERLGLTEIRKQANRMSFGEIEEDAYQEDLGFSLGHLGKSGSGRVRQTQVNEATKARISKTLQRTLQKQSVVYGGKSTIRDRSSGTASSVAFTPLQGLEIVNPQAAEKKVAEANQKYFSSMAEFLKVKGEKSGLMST
UniProt O00743: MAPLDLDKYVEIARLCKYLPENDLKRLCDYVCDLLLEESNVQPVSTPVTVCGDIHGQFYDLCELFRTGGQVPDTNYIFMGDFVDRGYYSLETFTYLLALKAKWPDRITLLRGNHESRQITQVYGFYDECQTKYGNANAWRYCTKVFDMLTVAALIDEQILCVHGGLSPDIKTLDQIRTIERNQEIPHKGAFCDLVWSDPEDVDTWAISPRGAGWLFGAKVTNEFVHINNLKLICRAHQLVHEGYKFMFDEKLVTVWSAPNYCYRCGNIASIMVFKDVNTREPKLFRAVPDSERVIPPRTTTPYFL
UniProt Q9UMR5: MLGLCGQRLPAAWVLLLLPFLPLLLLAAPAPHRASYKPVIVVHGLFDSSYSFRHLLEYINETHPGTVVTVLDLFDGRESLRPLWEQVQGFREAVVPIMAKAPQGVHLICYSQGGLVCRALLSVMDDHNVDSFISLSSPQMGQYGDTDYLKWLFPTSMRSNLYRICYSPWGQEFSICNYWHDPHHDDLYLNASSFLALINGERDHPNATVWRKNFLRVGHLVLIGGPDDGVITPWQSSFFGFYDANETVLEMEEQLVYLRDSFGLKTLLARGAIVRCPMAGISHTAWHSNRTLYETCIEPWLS
UniProt O60678: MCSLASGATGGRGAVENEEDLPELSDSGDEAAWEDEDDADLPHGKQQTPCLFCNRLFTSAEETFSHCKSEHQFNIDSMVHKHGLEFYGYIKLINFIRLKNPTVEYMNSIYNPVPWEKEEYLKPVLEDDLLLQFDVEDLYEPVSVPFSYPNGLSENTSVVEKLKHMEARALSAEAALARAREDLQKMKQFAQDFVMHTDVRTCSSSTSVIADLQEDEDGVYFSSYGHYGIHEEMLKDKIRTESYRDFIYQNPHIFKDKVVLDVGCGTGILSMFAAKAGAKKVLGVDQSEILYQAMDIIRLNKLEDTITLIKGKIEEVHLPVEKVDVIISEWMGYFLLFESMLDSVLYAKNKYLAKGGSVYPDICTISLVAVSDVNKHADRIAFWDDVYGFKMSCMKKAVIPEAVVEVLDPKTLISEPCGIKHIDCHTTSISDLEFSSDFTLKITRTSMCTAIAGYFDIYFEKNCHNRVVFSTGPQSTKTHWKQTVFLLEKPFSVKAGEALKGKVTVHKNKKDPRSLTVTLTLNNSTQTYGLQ
UniProt Q9UMS4: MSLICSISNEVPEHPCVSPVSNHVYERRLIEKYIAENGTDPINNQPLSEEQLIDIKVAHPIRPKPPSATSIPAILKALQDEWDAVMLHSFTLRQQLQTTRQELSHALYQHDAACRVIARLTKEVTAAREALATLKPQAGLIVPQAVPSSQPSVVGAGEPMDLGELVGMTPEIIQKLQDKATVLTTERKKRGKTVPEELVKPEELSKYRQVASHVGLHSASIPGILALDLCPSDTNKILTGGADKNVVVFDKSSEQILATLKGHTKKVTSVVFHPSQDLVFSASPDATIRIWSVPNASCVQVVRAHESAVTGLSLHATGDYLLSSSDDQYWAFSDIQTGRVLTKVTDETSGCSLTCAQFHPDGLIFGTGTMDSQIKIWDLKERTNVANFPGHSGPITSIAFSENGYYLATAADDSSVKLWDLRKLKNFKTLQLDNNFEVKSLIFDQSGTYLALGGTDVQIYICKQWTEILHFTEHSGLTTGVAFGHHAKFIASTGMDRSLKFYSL
UniProt Q8WY54: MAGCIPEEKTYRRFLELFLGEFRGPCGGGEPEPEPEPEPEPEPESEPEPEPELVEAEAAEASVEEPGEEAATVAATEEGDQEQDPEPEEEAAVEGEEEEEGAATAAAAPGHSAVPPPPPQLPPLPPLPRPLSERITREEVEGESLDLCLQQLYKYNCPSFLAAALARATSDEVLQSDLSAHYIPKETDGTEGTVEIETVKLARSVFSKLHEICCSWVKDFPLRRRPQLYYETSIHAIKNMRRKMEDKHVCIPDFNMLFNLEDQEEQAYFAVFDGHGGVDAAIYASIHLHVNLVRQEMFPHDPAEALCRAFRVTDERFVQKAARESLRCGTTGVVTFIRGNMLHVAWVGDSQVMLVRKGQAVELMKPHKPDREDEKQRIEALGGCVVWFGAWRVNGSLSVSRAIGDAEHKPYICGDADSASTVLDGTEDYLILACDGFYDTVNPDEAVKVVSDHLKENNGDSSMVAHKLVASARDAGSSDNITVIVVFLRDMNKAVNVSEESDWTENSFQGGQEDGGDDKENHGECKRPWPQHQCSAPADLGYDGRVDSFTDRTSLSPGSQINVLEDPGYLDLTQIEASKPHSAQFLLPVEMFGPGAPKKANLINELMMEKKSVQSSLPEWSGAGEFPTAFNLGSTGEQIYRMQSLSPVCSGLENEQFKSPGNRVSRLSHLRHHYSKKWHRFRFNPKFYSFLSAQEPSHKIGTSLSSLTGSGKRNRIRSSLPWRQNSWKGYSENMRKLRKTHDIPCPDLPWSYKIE
UniProt P62136, whole entry, looked up: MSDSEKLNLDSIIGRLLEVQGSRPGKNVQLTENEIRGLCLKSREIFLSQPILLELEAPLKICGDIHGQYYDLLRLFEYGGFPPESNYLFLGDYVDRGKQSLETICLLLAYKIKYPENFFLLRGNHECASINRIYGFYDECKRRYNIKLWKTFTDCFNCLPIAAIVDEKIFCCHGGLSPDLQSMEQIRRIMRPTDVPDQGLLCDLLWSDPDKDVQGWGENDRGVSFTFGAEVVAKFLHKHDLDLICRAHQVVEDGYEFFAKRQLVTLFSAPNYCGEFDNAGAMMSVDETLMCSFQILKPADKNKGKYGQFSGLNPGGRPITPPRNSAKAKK
UniProt P67775, whole entry, looked up: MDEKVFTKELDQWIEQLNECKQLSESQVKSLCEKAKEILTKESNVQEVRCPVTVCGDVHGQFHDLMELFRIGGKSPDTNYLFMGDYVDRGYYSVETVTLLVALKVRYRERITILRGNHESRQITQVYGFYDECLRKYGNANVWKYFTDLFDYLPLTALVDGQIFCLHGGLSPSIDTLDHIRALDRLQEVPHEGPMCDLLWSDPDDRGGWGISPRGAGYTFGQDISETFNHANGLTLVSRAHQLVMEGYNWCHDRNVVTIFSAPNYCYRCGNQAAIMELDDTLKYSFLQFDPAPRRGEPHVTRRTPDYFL
UniProt P63151: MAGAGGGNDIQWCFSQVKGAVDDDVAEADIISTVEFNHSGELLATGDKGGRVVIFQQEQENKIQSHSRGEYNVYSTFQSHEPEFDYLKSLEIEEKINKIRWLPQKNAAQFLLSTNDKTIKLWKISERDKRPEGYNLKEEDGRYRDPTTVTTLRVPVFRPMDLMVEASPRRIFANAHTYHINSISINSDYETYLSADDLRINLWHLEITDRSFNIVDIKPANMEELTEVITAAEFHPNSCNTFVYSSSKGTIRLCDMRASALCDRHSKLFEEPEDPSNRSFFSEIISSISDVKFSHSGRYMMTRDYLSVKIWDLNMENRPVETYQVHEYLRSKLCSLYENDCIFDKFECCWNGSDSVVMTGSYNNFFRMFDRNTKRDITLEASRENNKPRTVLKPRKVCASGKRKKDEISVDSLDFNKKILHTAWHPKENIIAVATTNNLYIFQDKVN
UniProt Q8NAV1: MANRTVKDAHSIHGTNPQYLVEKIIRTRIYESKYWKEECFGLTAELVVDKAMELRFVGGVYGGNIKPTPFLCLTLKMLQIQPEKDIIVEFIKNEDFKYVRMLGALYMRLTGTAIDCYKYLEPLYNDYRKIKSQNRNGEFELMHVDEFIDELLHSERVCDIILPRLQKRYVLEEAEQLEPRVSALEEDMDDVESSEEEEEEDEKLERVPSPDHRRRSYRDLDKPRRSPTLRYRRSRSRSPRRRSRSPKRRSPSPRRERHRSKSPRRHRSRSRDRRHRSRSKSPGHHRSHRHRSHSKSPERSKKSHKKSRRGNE
UniProt Q9UPN7: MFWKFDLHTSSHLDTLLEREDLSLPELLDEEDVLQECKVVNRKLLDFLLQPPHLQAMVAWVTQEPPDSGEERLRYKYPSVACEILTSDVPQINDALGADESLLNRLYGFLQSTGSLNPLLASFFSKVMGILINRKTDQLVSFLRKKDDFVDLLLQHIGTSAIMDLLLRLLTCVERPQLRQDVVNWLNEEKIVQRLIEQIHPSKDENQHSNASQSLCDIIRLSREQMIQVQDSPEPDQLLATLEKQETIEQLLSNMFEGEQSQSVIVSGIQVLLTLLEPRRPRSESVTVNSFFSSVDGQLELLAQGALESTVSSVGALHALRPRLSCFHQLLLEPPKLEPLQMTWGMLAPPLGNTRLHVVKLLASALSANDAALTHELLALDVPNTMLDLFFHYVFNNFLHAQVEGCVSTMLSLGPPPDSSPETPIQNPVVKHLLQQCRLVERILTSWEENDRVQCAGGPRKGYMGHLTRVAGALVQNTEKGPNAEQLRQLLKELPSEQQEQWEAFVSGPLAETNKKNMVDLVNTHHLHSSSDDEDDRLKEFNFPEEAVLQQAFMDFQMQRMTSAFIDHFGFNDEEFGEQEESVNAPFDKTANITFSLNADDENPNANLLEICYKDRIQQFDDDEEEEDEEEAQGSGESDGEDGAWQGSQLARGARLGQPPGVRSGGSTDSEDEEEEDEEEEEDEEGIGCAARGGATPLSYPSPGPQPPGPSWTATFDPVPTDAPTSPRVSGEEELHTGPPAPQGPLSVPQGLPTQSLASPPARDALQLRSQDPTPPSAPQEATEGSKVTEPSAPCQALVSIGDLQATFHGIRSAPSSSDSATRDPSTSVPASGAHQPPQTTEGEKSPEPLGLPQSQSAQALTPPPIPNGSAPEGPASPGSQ
UniProt P13861, whole entry, looked up: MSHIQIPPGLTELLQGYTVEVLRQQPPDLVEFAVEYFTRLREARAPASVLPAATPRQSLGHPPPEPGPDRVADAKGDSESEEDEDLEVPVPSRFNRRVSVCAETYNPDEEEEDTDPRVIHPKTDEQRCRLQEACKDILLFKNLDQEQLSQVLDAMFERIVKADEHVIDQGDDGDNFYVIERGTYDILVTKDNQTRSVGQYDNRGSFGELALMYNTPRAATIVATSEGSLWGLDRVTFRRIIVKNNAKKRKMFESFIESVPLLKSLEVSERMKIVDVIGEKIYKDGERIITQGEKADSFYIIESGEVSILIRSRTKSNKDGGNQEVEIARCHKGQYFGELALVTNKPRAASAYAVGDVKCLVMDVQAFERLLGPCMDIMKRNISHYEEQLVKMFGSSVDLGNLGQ
UniProt P30048: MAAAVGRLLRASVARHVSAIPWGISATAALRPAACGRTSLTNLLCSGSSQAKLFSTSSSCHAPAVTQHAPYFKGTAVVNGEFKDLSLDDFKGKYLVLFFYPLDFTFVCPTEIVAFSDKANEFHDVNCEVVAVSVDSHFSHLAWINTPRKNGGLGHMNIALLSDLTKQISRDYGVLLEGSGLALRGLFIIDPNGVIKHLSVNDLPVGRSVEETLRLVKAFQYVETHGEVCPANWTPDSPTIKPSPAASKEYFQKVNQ

How the values were obtained:
Experiment in all cases: log2 fold change, soluble protein after heating vs DMSO (PISA); higher = thermal stabilisation; K562 cells, 10 uM, 30 min; active = over 0.2 and 3.5 SD of the protein, either way, in both replicates (recomputed)
[1] = compound: NC(=O)Nc1cc(-c2cccc(F)c2)sc1C(=O)N[C@H]1CCCNC1
In short: (§1)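 Values are thermal stability changes relative to control samples and are taken from duplicates. They are stated as log2 fold changes. Before quantification by TMTpro 16plex LC-MS/MS with equalised channel sums, K562 cells at 2×10^6 cells/mL were treated with 10 μM compound for 30 min, heated in aliquots for 3 min across 48°C-58°C, pooled, extracted in PBS with 0.5% NP-40 at 4°C, and centrifuged at 21,000xg for 90 min to give the soluble supernatant.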

[2] = compound: NC(=O)c1cnc(N[C@@H]2CCCC[C@@H]2N)nc1Nc1cccc(-n2nccn2)c1
In short: as §1

[3] = compound: NC1(c2ccc(-c3nc4ccn5c(=O)[nH]nc5c4cc3-c3ccccc3)cc2)CCC1
In short: as §1

[4] = compound: NCC(=O)Nc1ccc(-n2nc(C(F)(F)F)cc2-c2ccc3c(ccc4ccccc43)c2)cc1
In short: as §1

[5] = compound: Nc1ccccc1NC(=O)c1ccc(CNC(=O)OCc2cccnc2)cc1 [entinostat]
In short: as §1

[6] = compound: O=C(CCCCCCC(=O)Nc1ccccc1)NO [vorinostat]
In short: as §1

[7] = compound: O=C(CCCCCCNC(=O)c1cnc(N(c2ccccc2)c2ccccc2Cl)nc1)NO [citarinostat]
In short: as §1

[8] = compound: O=C(O)c1ccc2c(c1)nc(Nc1cccc(Cl)c1)c1ccncc12 [silmitasertib]
In short: as §1

[9] = compound: O=C1NC(=O)C(c2cnc3ccccn23)=C1c1cn2c3c(cc(F)cc13)CN(C(=O)N1CCCCC1)CC2
In short: as §1

[10] = compound: c1cc(OCCN2CCCCC2)cc(-c2n[nH]c3ccc(-c4nnc[nH]4)cc23)c1
In short: as §1

Measured: log2 fold change

PRPF31 (UniProt Q8WWY3)
inactive: [1] -0.076 | [2] -0.138 | [3] -0.241 | [4] -0.065 | [5] 0.071 | [6] 0.182 | [7] 0.042 | [8] -0.038 | [9] -0.194 | [10] -0.038

PPP6C isoform 3 (UniProt O00743)
inactive: [1] -0.012 | [2] -0.025 | [3] -0.033 | [4] 0.006 | [5] -0.027 | [6] -0.031 | [7] 0.009 | [8] 0.032 | [9] -0.049 | [10] -0.052

PRKDC (UniProt P78527)
inactive: [1] -0.007 | [2] -0.024 | [3] -0.118 | [4] -0.031 | [5] 0.029 | [6] 0.028 | [7] 0.067 | [8] -0.017 | [9] -0.055 | [10] -0.008

PPP2R5C isoform 4 (UniProt Q13362)
inactive: [1] -0.035 | [2] 0.079 | [3] -0.064 | [4] -0.065 | [5] 0.012 | [6] -0.033 | [7] 0.055 | [8] -0.015 | [9] -0.022 | [10] 0.058

PPT2 isoform 3 (UniProt Q9UMR5)
inactive: [1] 0.035 | [2] 0.008 | [3] -0.15 | [4] 0.017 | [5] 0.02 | [6] 0.063 | [7] 0.015 | [8] 0.018 | [9] 0.029 | [10] 0.034

PRKCQ (UniProt Q04759)
inactive: [2] -0.135 | [3] -0.198 | [4] -0.052 | [5] 0.002 | [6] 0.035 | [7] 0.001 | [8] 0.002 | [9] -0.021 | [10] -0.187
active: [1] -0.337

PRKAG2 (UniProt Q9UGJ0)
inactive: [1] -0.078 | [2] -0.036 | [3] -0.124 | [4] -0.012 | [5] -0.284 | [6] 0.196 | [7] 0.072 | [8] 0.034 | [9] 0.042 | [10] -0.042

PRMT3 (UniProt O60678)
inactive: [1] 0.042 | [2] -0.05 | [3] -0.187 | [4] -0.034 | [5] 0.055 | [6] 0.041 | [7] 0.042 | [8] -0.023 | [9] -0.027 | [10] -0.027

PPME1 (UniProt Q9Y570)
inactive: [1] -0.053 | [2] -0.046 | [3] -0.001 | [4] -0.006 | [5] -0.005 | [6] -0.004 | [7] 0.014 | [8] 0.021 | [9] -0.028 | [10] -0.034

PRCC (UniProt Q92733)
inactive: [1] -0.016 | [2] -0.074 | [3] 0.035 | [4] 0 | [5] -0.015 | [6] -0.025 | [7] -0.011 | [8] 0.032 | [9] -0.048 | [10] -0.021

PRPF19 (UniProt Q9UMS4)
inactive: [1] 0.008 | [2] 0 | [3] -0.01 | [4] 0.014 | [5] -0.02 | [6] -0.097 | [7] 0.007 | [8] 0.007 | [9] 0.003 | [10] -0.027

PPM1E (UniProt Q8WY54)
inactive: [1] -0.056 | [2] -0.019 | [3] -0.074 | [4] -0.014 | [5] -0.014 | [6] 0.002 | [7] 0.057 | [8] -0.085 | [9] -0.325 | [10] 0.02

PPP6R3 isoform 5 (UniProt Q5H9R7)
inactive: [1] 0.038 | [2] -0.001 | [3] -0.044 | [4] 0.021 | [5] -0.023 | [6] 0.008 | [7] 0.023 | [8] 0.035 | [9] -0.008 | [10] -0.027

PPP1CA (UniProt P62136)
inactive: [1] -0.036 | [2] -0.051 | [3] -0.019 | [4] -0.02 | [5] -0.012 | [6] -0.023 | [7] 0.034 | [8] 0 | [9] 0.007 | [10] -0.045

PPP2CA (UniProt P67775)
inactive: [1] -0.081 | [2] -0.005 | [3] -0.042 | [4] -0.013 | [5] -0.074 | [6] -0.037 | [7] 0.026 | [8] -0.036 | [9] -0.046 | [10] -0.03

PPP2R2A isoform 2 (UniProt P63151)
inactive: [1] -0.013 | [2] -0.036 | [3] -0.032 | [4] -0.004 | [5] -0.015 | [6] 0.005 | [7] 0.04 | [8] 0.005 | [9] -0.038 | [10] -0.029

Quoted at random: 2 records from the list, in no set order.
PPP2CA (UniProt P67775)
inactive: [1] -0.081 | [2] -0.005 | [3] -0.042 | [4] -0.013 | [5] -0.074 | [6] -0.037 | [7] 0.026 | [8] -0.036 | [9] -0.046 | [10] -0.03

PPP1CA (UniProt P62136)
inactive: [1] -0.036 | [2] -0.051 | [3] -0.019 | [4] -0.02 | [5] -0.012 | [6] -0.023 | [7] 0.034 | [8] 0 | [9] 0.007 | [10] -0.045

Following part:

PRKCG (UniProt P05129)
inactive: [1] -0.064 | [2] -0.043 | [3] -0.086 | [4] 0.068 | [5] 0.117 | [6] 0.109 | [7] 0.193 | [8] 0.062 | [9] -0.229 | [10] 0.082

PRPF38A (UniProt Q8NAV1)
inactive: [1] -0.039 | [2] -0.015 | [3] -0.105 | [4] -0.006 | [5] 0.004 | [6] 0.002 | [7] 0.152 | [8] -0.212 | [9] 0.095 | [10] -0.122

PPP6R1 (UniProt Q9UPN7)
inactive: [1] 0.023 | [2] -0.066 | [3] -0.09 | [4] 0.011 | [5] -0.018 | [6] 0.023 | [7] 0.054 | [8] 0.013 | [9] -0.055 | [10] -0.05

PPP6R2 isoform 5 (UniProt O75170)
inactive: [1] 0.047 | [2] 0.048 | [3] -0.053 | [4] 0.082 | [5] -0.017 | [6] 0.028 | [7] 0.077 | [8] -0.002 | [9] -0.019 | [10] -0.022

PRKAR2A (UniProt P13861)
inactive: [2] -0.071 | [3] -0.002 | [4] -0.039 | [5] 0.025 | [6] -0.012 | [7] 0.002 | [8] 0.051 | [9] 0.002 | [10] -0.028
active: [1] -0.502

PPP1R12A (UniProt O14974)
active: [1] -0.428
inactive: [2] -0.358 | [3] -0.137 | [4] -0.012 | [5] 0.041 | [6] 0.017 | [7] 0.078 | [8] 0.051 | [9] -0.01 | [10] -0.369

PRKAA1 isoform 2 (UniProt Q13131)
inactive: [1] -0.141 | [2] -0.009 | [3] -0.049 | [4] -0.007 | [5] 0.002 | [6] 0.052 | [7] 0.044 | [8] -0.006 | [9] -0.007 | [10] -0.056

PRKAG1 isoform 3 (UniProt P54619)
inactive: [1] -0.105 | [2] -0.033 | [3] -0.069 | [4] -0.045 | [5] 0.017 | [6] 0.071 | [7] 0.04 | [8] 0.016 | [9] -0.042 | [10] -0.091

PREB (UniProt Q9HCU5)
inactive: [1] -0.017 | [2] -0.002 | [3] -0.011 | [4] -0.03 | [5] 0.012 | [6] -0.034 | [7] -0.015 | [8] -0.023 | [9] -0.032 | [10] -0.016

PRPF3 (UniProt O43395)
inactive: [1] 0.026 | [2] -0.029 | [3] -0.099 | [4] -0.077 | [5] 0.064 | [6] 0.128 | [7] 0.194 | [8] -0.014 | [9] -0.063 | [10] 0

PPP4R3B (UniProt Q5MIZ7)
inactive: [1] -0.068 | [2] -0.082 | [3] -0.069 | [4] -0.079 | [5] 0.047 | [6] 0.089 | [7] 0.086 | [8] 0.077 | [9] -0.1 | [10] 0.087

PPWD1 (UniProt Q96BP3)
inactive: [1] -0.062 | [2] -0.074 | [3] -0.112 | [4] -0.047 | [5] 0.035 | [6] 0.009 | [7] 0.005 | [8] 0.021 | [9] -0.055 | [10] 0.003

PRCP (UniProt P42785)
inactive: [1] 0.013 | [2] 0.005 | [3] -0.106 | [4] 0.008 | [5] 0.035 | [6] 0.005 | [7] 0.028 | [8] 0 | [9] -0.014 | [10] 0.044

PRDX3 (UniProt P30048)
inactive: [1] -0.014 | [2] -0.081 | [3] 0.027 | [4] -0.034 | [5] 0.008 | [6] -0.077 | [7] -0.006 | [8] -0.016 | [9] -0.022 | [10] -0.008
